In ChEMBL document CHEMBL4513149, “CO-ADD screening of MMV (CH) - MMV compounds” (2021) one finds Inhibition data, which are given here for 24 compounds.

SMILES strings stand for the structures. The list shows a part of the results. Measured potencies and affinities stand elsewhere.

The test has as its system Acinetobacter baumannii. The following applies: Concentration 20 uM; ASSAY_TEST Inhibition of Bacterial Growth; detection method Absorption (OD600); MEDIA CAMHB; plate type 384well; NBS; CORNING #3640; time 18 hr.
For the compound `Cn1ncc2c(N3CCOCC3)nc(NCCc3c[nH]c4ccccc34)nc21` [TDR79432], the Inhibition (commonly the change of the read-out against control, counted positive when it falls) was 7.72%.

For `O=C(NCCN1CCCC1)c1cc(NCCN2CCOCC2)nc2ccc(Cl)cc12`, the Inhibition is recorded as 9.33%.

`O=C(NC1=NCCS1)c1sc2cc(F)ccc2c1Cl`: the Inhibition was 10.08%.

With `O=C(Cn1ccnc1[N+](=O)[O-])NCc1ccccc1` [BENZNIDAZOLE], the Inhibition came to 13.69%.

As for `Cl.Cl.Cl.NS(=O)(=O)c1cncc(-c2ccc3nccc(-c4cn[nH]c4)c3n2)c1`, the Inhibition came out at 2.72%.

As to `FC(F)(F)c1ccc(N(c2cccnc2)C2CCN(c3ccc(C(F)(F)F)cn3)CC2)cc1`, the Inhibition stood at 7.79%.

`Clc1ccc(-n2cc(COc3ccnc4ccccc34)nn2)cc1`: the Inhibition worked out at 7.79%.

On to `Clc1ccc(CCNc2cc(-c3ccccc3)nc3ncnn23)cc1`, for which the Inhibition is 13.13%.

Consider `N#Cc1nc(-c2ccccc2)oc1S(=O)(=O)c1ccc(Cl)cc1`, for which the Inhibition is 2.76%.

Take `O=C(NCc1ccoc1)N1CCN(Cc2ccc3c(c2)OCO3)CC1`: the Inhibition is on record as 6.63%.

Take `Cc1nn2c(O)c3c(nc2c1-c1ccc(F)cc1)CCCC3`: the Inhibition stood at 11.04%.

As for `COc1ccc(C2(C(=O)Nc3ccc(Br)cc3)CCCC2)cc1`, the Inhibition was -4.28%.

In the case of `CC(C)(C)OC(=O)N1CCC(Cn2nc(-c3cnc4ccccc4c3)c3c(N)ncnc32)CC1`, the Inhibition was determined as 8.79%.

Turning to `CC(C)C(NC(=O)Cc1cccc2ccccc12)C(=O)Nc1cccc(C#N)c1` (centres undefined), the Inhibition is 6.32%.

Consider `O=C(NC1CC1)c1ccc(N2CCC(Cc3ccccc3)CC2)nc1`, for which the Inhibition is recorded as 14.76%.

Regarding `Cc1nn(C(=O)Nc2cccc(C(F)(F)F)c2)c(C)c1Sc1ncccn1`, the Inhibition stood at 4.58%.

Turning to `COc1ccc(OC(C)C(=O)Nc2ccc(Cl)cc2C)cc1` (centres undefined), the Inhibition turned out to be 14.06%.

Consider `CN1CCC(NCc2cccc(-c3ccc(S(=O)(=O)NCc4ccccc4)cc3)c2)CC1`, for which the Inhibition is reported as 9.55%.

In the case of `O=C(NC1CCCCC1)N1CCN(Cc2ccc3c(c2)OCO3)CC1`, the Inhibition is 11.94%.

For the compound `Cl.c1ccc(Oc2ccc(-c3cc(N4CCNCC4)[nH]n3)cc2)cc1`, the Inhibition was -8.75%.

As for `CNC(=O)CNc1nc(-c2ccccn2)nc2scc(-c3ccccc3)c12`, the Inhibition came out at 14.89%.

`COc1cccc(-c2cc3c(Nc4cccnc4)nccc3[nH]2)c1`: the Inhibition is 7.03%.

For `Cc1ccc(C(=O)Nc2ccc(S(=O)(=O)O)c3cc(S(=O)(=O)O)cc(S(=O)(=O)O)c23)cc1NC(=O)c1cccc(NC(=O)Nc2cccc(C(=O)Nc3cc(C(=O)Nc4ccc(S(=O)(=O)O)c5cc(S(=O)(=O)O)cc(S(=O)(=O)O)c45)ccc3C)c2)c1` [SURAMIN], the Inhibition came out at 10.42%.

On to `Cc1cc(C(=O)Nc2cnn(Cc3ccc(Cl)cc3Cl)c2)no1`, for which the Inhibition is listed as -1.31%.
